The data set in a line: Liquid-liquid purification system, Example 1 (samples of phases analyzed). As to conditions: for concentration in final samples: Vessel 3, after evaporation with nitrogen gas flushing.

Molecules are shown by their SMILES.

In the case of `CC(C)=O` [Acetone], the “concentration in final samples” value is 200 to 400 mM. Still for that read-out and setting: as for `CCOCC` [Diethyl ether], the figure is 10 to 50 mM.

In the case of `CC(=O)C(=O)[O-].[Na+]` [sodium pyruvate], the “concentration in final samples” value is 70 to 100 mM. Further, the “concentration in the aqueous phase” value (Vessel 1, after first washing step) is 70 to 100 mM.

For the origin of these results see patent publication US20240299593A1, “SYSTEMS AND METHODS FOR GENERATION OF HYPERPOLARIZED MATERIALS” (NVISION IMAGING TECHNOLOGIES GMBH, priority 2021, published 2024).
